Results are given in words; binding and its absence hold for the method and conditions named. In cells and extracts the contact can be indirect. Some results given as binding are weak or reduced against the parent protein; the word gives no strength.
Tests used:
[1] = target: FIR–FLAG (far-upstream element-binding protein-interacting repressor, FLAG-tagged), expressed in HeLa cells (UniProt Q9UHX1); experiment: co-IP; pull-down from HeLa cells stably expressing FIR–FLAG or FIRΔexon2–FLAG; blot for DNA-PKcs and SAP155
[2] = target: FIR–FLAG (far-upstream element-binding protein-interacting repressor, FLAG-tagged), expressed in HeLa cells (UniProt Q9UHX1); experiment: co-IP; pull-down from HeLa cells transiently expressing FIR–FLAG, FIRΔexon2–FLAG or PUF60–FLAG; blot for Ku86 and SAP155; mock: empty vector

Sequences of proteins named here, by UniProt entry; tags and fusion partners are left off. A change or cut given only in a name is not applied to a line headed by its entry. A line that says so, or that is headed by a name, gives the form on record, which may keep a tag or linker.
FIR–FLAG (far-upstream element-binding protein-interacting repressor, FLAG-tagged), expressed in HeLa cells (Q9UHX1, form named): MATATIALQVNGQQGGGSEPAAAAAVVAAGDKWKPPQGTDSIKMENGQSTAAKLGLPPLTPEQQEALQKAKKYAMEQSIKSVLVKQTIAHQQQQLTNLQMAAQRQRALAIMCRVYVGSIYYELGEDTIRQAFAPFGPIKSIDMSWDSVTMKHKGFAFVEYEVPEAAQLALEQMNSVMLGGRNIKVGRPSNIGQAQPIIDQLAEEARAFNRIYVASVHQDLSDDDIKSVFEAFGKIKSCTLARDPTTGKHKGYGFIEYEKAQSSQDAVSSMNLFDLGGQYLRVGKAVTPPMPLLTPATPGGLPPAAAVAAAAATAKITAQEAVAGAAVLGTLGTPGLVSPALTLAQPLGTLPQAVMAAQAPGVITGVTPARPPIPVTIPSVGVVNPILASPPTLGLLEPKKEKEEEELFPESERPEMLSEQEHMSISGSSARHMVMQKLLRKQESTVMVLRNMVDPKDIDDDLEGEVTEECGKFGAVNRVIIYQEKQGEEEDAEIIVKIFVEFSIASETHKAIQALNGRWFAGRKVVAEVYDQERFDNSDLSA
UniProt P78527: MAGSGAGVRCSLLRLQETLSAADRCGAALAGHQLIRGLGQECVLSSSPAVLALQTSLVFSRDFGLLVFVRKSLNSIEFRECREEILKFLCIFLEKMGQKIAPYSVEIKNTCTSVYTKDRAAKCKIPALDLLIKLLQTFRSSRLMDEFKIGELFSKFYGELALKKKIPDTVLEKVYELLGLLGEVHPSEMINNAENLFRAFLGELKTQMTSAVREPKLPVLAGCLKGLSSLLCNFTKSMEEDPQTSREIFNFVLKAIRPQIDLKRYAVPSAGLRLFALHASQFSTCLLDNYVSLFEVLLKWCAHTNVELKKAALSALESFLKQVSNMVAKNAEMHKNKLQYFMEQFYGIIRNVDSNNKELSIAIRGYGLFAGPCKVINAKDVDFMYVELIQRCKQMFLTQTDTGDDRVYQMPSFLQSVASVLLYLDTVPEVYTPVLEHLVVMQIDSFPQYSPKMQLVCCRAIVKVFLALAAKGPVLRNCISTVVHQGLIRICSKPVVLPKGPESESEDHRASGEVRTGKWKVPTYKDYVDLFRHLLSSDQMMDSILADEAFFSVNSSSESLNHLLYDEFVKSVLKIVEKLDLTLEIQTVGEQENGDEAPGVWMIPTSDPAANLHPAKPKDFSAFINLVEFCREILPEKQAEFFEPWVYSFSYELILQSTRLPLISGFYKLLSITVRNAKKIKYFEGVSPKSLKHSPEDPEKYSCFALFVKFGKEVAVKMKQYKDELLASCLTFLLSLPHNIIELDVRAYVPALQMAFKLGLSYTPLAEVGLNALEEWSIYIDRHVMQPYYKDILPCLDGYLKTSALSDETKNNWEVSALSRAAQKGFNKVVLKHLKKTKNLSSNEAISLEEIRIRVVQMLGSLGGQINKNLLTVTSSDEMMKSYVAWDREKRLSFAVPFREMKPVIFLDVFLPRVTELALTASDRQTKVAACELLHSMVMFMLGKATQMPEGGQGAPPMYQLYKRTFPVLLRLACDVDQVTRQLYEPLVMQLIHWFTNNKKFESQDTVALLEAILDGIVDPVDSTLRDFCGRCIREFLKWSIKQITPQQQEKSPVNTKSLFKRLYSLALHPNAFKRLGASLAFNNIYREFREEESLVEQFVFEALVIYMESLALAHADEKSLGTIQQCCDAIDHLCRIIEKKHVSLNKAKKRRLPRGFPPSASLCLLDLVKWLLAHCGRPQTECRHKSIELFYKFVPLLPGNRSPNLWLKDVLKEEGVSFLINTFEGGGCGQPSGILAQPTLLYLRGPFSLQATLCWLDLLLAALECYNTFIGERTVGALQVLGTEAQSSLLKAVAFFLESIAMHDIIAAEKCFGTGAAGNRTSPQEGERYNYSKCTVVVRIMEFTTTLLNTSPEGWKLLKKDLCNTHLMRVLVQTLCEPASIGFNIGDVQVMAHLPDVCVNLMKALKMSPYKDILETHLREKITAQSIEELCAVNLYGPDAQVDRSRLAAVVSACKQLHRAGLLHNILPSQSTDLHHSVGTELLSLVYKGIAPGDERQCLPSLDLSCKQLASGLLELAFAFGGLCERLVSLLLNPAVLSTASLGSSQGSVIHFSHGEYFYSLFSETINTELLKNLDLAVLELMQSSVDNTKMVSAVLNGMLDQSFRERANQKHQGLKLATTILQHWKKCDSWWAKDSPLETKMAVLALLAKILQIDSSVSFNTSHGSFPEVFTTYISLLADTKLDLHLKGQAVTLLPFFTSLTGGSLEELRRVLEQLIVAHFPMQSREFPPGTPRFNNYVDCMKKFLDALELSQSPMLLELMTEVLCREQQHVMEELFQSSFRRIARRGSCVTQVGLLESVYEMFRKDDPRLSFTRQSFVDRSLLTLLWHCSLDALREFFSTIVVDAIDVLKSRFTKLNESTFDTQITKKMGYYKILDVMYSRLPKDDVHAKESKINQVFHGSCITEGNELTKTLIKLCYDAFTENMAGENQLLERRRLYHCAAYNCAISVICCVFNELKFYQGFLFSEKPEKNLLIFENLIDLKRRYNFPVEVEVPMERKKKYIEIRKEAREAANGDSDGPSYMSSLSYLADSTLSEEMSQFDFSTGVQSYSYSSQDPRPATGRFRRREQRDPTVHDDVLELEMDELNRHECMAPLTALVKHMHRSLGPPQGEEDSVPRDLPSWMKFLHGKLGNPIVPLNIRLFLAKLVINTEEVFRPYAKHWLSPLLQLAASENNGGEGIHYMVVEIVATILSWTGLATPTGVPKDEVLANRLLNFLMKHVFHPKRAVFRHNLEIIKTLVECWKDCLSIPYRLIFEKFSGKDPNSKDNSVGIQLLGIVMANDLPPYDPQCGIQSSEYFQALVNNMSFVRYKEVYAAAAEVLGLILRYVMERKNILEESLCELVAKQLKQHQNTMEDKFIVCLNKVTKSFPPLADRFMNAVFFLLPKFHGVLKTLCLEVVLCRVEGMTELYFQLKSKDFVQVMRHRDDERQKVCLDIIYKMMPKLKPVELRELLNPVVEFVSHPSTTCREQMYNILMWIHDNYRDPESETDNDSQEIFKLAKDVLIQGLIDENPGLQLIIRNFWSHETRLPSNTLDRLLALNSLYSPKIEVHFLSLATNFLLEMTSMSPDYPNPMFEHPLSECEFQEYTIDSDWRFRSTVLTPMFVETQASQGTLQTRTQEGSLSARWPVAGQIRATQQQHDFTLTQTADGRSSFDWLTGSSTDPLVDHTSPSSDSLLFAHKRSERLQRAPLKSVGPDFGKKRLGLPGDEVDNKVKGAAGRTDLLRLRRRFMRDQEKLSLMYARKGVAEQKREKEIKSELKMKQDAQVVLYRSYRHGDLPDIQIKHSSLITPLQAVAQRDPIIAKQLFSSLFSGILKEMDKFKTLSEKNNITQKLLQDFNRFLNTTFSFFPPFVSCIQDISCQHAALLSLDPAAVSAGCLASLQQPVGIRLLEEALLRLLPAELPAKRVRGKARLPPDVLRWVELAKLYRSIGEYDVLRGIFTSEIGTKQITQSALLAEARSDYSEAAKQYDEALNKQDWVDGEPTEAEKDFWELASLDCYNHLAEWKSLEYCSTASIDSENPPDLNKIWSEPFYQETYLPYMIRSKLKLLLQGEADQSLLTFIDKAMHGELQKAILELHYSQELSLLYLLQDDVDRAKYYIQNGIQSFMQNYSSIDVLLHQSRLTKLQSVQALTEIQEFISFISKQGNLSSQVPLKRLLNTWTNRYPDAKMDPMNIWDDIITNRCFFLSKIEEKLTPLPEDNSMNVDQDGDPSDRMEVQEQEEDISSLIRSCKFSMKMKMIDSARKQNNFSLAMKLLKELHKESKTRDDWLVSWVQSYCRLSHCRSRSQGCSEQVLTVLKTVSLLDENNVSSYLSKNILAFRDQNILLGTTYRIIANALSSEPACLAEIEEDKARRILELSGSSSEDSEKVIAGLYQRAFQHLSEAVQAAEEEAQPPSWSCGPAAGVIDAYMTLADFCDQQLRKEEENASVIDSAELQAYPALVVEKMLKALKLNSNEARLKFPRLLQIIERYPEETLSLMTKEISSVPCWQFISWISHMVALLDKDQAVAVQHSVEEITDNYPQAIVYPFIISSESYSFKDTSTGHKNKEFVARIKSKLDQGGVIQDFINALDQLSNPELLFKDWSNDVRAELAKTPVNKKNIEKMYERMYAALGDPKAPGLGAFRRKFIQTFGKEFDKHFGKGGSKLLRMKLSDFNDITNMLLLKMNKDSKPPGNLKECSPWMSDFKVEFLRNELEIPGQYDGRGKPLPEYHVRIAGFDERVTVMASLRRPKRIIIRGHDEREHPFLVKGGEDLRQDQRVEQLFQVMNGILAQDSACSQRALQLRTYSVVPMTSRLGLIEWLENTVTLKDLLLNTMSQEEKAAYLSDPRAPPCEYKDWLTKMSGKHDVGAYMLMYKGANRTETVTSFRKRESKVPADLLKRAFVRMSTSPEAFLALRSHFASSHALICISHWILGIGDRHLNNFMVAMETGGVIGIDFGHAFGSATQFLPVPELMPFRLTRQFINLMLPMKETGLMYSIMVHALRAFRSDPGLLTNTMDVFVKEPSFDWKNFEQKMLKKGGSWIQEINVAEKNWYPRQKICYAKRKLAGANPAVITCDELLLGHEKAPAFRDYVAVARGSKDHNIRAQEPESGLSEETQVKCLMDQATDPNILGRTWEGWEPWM
UniProt O75533: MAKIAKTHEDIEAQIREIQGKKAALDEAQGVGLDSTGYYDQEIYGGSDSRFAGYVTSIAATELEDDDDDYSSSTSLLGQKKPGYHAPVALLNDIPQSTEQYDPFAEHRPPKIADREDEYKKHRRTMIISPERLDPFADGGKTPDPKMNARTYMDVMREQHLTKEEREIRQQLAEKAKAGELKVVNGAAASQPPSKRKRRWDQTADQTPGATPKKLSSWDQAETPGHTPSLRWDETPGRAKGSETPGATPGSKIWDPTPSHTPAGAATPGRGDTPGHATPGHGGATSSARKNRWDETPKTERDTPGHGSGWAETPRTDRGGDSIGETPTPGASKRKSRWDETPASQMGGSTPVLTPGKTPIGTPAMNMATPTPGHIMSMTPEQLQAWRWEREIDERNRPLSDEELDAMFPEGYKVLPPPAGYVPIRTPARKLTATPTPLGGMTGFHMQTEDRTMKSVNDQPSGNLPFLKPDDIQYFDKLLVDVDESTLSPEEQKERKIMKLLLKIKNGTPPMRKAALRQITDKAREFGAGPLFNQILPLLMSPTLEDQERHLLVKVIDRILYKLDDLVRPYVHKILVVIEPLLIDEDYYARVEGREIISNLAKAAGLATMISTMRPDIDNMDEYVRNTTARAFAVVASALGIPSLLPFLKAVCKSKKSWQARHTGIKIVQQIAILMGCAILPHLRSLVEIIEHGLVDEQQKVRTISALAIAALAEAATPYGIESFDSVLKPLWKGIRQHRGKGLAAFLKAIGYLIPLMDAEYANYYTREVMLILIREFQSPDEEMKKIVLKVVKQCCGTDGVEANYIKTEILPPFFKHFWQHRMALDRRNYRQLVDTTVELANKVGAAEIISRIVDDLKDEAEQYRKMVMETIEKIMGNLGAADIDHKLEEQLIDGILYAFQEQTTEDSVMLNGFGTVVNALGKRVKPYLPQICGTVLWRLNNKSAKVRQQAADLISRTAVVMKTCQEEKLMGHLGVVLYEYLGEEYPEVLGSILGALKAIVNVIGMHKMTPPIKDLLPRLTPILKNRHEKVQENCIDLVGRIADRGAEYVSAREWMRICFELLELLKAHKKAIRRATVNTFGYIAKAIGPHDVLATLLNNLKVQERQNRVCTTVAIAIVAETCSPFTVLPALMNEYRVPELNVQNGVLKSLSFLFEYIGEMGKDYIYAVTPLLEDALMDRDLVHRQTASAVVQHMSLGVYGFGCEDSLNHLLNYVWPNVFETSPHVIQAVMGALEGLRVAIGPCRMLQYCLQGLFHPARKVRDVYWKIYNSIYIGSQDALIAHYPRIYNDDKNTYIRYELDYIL

Row | binding [1] | binding [2] | Substance
1 | binds |  | DNA-PKcs (catalytic subunit of DNA protein kinase) (from UniProt P78527 1-4128)
2 |  | binds | SAP155 (subunit of splicing factor 3b) (from UniProt O75533 1-1304)
